Where a name gives a salt, the structure may show the parent alone. This is one part of the list. Hit calls seldom repeat between salt and free forms of one compound.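 Kinases, fused to nanoluciferase, were expressed in K562 cells; luminescence was measured every 4 h from 2 to 18 h as percent of control (DMSO = 100%, positive control = 0%). A time point is decreased if signal falls significantly (2 sigma). Hits were called by the authors by a rule that is not shown; the count of time points alone does not decide it.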
Columns and labels:
Assay in all cases: kinase-Nluc reporter destabilization hit call (1 = scored as downregulated) (binary); higher = compound decreases kinase abundance
Conditions in all cases: K562, 2-18 h
MAPK1 = MAPK1 (UniProt P28482)
MAPK4 = MAPK4 (UniProt P31152)
MAPKAPK2 = MAPKAPK2 (UniProt P49137)
MKNK1 = MKNK1 (UniProt Q9BUB5)
NTRK2 = NTRK2 (UniProt Q16620)
NTRK3 = NTRK3 (UniProt Q16288)
PAK4 = PAK4 (UniProt O96013)
PBK = PBK (UniProt Q96KB5)
PDGFRB = PDGFRB (UniProt P09619)
PDK1 = PDK1 (UniProt Q15118)
PDPK1 = PDPK1 (UniProt O15530)
PIK4CA = PIK4CA (UniProt P42356)
PIK4CB = PIK4CB (UniProt Q9UBF8)
PRKAA1 = PRKAA1 (UniProt Q13131)
PRKCA = PRKCA (UniProt P17252)
PTK2 = PTK2 (UniProt Q05397)
PTK2B = PTK2B (UniProt Q14289)
RAF1 = RAF1 (UniProt P04049)
[1] = biological target: RAF1_S257L (clone: RAF1_mut) (UniProt P04049)
PLK1 = PLK1 (UniProt P53350)

By UniProt entry, the sequences of proteins in these tests, tags left out. Where a name states a change or a piece, a line headed by the entry shows the natural chain unless it says otherwise.
UniProt P28482, whole entry: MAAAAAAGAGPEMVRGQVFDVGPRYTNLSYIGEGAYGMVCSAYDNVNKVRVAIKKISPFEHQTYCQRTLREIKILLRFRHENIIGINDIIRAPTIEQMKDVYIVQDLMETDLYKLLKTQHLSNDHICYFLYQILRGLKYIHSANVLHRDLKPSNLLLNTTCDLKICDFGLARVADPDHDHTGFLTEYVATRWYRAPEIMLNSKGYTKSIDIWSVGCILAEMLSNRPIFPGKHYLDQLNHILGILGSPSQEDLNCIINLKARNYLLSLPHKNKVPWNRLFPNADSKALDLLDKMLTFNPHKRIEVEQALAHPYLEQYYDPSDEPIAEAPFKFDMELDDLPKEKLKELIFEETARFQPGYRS
UniProt P49137, whole entry, looked up: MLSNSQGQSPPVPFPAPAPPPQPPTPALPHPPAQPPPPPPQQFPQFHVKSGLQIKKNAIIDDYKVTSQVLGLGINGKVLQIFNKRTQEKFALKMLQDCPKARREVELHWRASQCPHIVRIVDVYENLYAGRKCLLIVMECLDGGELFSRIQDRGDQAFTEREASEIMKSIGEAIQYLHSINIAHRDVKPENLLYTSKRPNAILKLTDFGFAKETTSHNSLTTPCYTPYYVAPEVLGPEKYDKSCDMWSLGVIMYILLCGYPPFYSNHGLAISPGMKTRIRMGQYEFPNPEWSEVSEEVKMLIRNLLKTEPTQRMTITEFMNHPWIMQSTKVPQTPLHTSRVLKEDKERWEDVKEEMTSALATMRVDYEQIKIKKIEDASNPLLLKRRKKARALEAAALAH
UniProt Q9BUB5: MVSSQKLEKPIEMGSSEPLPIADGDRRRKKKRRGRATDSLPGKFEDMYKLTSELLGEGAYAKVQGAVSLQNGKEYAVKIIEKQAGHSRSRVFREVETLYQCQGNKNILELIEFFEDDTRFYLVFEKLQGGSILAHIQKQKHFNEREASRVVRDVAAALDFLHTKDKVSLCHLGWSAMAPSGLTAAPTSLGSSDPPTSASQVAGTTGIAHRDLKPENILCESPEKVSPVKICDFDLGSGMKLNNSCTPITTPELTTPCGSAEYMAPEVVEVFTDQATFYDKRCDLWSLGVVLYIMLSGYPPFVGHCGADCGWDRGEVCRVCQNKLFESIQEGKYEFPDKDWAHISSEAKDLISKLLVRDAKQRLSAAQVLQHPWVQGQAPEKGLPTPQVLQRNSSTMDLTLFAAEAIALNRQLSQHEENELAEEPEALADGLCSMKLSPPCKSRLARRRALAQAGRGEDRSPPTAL
UniProt O96013: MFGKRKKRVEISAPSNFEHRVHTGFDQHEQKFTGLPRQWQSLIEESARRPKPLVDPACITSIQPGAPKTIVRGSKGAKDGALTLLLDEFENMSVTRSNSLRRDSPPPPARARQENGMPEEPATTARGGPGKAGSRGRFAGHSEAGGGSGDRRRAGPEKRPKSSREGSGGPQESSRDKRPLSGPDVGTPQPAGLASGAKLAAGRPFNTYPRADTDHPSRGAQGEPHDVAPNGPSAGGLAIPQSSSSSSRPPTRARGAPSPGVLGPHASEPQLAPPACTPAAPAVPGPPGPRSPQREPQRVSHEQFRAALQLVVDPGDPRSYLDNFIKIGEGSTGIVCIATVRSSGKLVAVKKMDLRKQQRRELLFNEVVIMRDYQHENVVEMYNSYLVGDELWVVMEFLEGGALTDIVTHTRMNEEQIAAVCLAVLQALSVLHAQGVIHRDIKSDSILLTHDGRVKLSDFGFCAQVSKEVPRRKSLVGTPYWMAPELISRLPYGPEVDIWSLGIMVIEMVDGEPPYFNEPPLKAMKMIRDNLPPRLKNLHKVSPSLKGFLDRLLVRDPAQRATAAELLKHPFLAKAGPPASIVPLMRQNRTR
UniProt Q96KB5: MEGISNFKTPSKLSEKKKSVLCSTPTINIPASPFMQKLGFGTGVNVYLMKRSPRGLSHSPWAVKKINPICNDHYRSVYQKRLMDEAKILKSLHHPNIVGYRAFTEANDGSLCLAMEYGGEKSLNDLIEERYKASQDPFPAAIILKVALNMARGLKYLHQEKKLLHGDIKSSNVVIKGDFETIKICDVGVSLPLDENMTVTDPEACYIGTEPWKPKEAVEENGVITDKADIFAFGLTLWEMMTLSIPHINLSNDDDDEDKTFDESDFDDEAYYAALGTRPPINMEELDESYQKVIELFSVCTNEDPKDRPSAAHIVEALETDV
UniProt P09619, whole entry: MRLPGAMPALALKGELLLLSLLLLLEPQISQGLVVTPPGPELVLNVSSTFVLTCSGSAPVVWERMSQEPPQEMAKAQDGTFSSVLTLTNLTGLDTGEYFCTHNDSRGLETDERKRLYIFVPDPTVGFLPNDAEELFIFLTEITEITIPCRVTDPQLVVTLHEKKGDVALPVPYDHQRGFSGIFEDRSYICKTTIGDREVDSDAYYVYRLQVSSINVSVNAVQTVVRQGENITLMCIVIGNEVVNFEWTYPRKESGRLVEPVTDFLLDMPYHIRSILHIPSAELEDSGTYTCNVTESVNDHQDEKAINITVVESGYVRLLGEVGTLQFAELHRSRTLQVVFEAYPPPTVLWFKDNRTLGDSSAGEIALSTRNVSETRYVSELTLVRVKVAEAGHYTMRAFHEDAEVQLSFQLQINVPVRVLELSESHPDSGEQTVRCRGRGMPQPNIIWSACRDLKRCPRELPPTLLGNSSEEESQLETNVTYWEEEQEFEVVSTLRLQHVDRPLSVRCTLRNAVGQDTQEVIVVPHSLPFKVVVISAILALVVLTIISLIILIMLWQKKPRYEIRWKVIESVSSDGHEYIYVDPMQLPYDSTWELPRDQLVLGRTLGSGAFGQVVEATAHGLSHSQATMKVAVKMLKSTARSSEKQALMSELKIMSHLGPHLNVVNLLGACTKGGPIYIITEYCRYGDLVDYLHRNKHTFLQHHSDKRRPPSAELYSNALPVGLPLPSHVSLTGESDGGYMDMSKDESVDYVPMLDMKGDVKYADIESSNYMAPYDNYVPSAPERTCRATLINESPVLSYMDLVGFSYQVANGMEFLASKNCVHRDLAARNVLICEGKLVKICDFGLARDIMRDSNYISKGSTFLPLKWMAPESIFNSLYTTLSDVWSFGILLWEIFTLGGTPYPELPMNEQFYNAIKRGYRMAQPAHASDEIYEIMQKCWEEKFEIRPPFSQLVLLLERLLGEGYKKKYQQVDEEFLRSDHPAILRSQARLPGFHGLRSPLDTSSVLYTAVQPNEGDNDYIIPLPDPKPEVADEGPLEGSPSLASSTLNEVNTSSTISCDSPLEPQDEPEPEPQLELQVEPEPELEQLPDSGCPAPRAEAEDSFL
UniProt Q15118, whole entry, looked up: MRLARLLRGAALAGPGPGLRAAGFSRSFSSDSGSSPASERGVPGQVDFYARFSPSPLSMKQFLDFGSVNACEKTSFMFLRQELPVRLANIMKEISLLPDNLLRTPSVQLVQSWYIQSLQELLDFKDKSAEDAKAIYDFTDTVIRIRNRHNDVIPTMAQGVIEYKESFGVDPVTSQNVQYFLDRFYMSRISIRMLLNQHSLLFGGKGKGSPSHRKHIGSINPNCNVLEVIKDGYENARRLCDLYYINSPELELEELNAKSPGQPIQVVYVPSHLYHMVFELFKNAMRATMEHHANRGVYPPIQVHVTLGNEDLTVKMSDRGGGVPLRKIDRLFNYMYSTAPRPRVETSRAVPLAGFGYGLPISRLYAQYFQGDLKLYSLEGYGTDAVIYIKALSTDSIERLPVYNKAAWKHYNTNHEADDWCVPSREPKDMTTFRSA
UniProt O15530: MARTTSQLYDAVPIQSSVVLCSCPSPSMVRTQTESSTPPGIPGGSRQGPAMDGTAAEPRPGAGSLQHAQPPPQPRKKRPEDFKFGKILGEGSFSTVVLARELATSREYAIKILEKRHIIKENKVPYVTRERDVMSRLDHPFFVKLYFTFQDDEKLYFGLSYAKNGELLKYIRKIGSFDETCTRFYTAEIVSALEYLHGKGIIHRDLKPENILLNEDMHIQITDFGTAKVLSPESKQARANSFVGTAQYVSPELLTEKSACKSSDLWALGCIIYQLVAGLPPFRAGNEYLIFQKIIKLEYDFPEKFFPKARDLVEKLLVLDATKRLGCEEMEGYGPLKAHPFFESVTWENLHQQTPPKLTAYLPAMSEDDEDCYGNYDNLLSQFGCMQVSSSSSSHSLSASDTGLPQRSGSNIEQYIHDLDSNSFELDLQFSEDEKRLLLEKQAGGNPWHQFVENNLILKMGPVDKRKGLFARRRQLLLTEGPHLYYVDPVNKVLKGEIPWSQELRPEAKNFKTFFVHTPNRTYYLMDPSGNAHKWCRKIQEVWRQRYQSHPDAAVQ
UniProt Q13131: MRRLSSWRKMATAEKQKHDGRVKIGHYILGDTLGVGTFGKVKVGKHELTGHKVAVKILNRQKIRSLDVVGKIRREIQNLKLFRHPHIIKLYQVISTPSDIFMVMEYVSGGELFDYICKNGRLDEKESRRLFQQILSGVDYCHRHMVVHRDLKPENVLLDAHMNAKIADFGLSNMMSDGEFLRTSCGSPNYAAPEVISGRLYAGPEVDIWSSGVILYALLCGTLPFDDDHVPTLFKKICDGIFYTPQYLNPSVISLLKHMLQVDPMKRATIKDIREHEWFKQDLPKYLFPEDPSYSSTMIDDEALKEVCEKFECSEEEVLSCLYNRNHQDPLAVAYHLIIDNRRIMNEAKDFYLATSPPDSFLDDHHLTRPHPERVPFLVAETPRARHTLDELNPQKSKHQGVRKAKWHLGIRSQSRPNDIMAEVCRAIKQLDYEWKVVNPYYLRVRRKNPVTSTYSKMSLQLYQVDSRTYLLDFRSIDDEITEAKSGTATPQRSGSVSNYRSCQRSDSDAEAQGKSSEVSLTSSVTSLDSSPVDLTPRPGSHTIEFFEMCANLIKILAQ
UniProt Q14289, whole entry, looked up: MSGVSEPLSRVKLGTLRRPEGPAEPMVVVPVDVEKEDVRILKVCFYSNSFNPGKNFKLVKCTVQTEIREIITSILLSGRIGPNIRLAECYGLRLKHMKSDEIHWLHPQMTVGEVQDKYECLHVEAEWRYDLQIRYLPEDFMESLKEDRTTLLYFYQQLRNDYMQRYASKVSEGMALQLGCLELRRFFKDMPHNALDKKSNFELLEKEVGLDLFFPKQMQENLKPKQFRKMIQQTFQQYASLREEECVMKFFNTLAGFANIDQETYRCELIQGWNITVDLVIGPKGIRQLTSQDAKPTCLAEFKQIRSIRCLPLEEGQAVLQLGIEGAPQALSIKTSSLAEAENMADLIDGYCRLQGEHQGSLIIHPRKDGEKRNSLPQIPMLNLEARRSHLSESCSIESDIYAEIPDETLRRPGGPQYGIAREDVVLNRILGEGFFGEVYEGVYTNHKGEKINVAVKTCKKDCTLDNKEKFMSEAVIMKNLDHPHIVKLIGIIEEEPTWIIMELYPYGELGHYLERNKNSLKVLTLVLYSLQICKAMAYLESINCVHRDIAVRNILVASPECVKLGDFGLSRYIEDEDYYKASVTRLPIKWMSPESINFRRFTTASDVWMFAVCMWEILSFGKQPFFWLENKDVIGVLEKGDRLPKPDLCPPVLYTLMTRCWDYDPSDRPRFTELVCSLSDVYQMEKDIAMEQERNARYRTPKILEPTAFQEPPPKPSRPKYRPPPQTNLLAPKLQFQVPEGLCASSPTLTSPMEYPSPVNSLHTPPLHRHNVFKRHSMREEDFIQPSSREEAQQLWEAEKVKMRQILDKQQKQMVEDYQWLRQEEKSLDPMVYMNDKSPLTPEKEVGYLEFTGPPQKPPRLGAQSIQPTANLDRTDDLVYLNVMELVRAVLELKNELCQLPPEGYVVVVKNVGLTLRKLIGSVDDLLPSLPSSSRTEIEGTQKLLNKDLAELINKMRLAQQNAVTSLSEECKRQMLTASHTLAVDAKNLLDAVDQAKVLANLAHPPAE

Measured: kinase-Nluc reporter destabilization hit call

C/C=C1\C(=O)C[C@H]2[C@@H]3CCC4=CC(=O)CC[C@]4(C)[C@H]3CC[C@]12C [Guggulsterone]
inactive: MAPK1; 10 µM 0 | MAPK4; 10 µM 0 | MAPKAPK2; 10 µM 0 | MKNK1; 10 µM 0 | NTRK2; 10 µM 0 | NTRK3; 10 µM 0 | PAK4; 10 µM 0 | PBK; 10 µM 0 | PDGFRB; 10 µM 0 | PDK1; 10 µM 0 | PDPK1; 10 µM 0 | PIK4CA; 10 µM 0 | PIK4CB; 10 µM 0 | PRKAA1; 10 µM 0 | PRKCA; 10 µM 0 | PTK2; 10 µM 0 | PTK2B; 10 µM 0 | RAF1; 10 µM 0 | [1]; 10 µM 0

O=C(c1ccc(F)c(F)c1Nc1ccc(I)cc1F)N1CC(O)([C@@H]2CCCCN2)C1 [Cobimetinib (hemifumarate)]
inactive: MAPK1; 10 µM 0 | MAPK4; 10 µM 0 | MAPKAPK2; 10 µM 0 | MKNK1; 10 µM 0 | NTRK3; 10 µM 0 | PAK4; 10 µM 0 | PBK; 10 µM 0 | PDGFRB; 10 µM 0 | PDK1; 10 µM 0 | PDPK1; 10 µM 0 | PIK4CA; 10 µM 0 | PIK4CB; 10 µM 0 | PLK1; 10 µM 0 | PRKAA1; 10 µM 0 | PRKCA; 10 µM 0 | PTK2; 10 µM 0 | PTK2B; 10 µM 0 | RAF1; 10 µM 0 | [1]; 10 µM 0

CNC(=O)c1ccc(Nc2ncc(C(F)(F)F)c(NCc3nccnc3N(C)S(C)(=O)=O)n2)cc1 [Defactinib (hydrochloride)]
inactive: MAPK1; 10 µM 0 | MAPK4; 10 µM 0 | MAPKAPK2; 10 µM 0 | MKNK1; 10 µM 0 | NTRK2; 10 µM 0 | NTRK3; 10 µM 0 | PAK4; 10 µM 0 | PBK; 10 µM 0 | PDGFRB; 10 µM 0 | PDK1; 10 µM 0 | PDPK1; 10 µM 0 | PIK4CA; 10 µM 0 | PIK4CB; 10 µM 0 | PLK1; 10 µM 0 | PRKAA1; 10 µM 0 | PRKCA; 10 µM 0 | PTK2; 10 µM 0 | PTK2B; 10 µM 0 | RAF1; 10 µM 0 | [1]; 10 µM 0

COc1cc2c(-c3cnn4cc(N5CCC(N6CCN(C)CC6)CC5)cnc34)ccnc2cc1F [ALK2-IN-4 (succinate)]
inactive: MAPK1; 10 µM 0 | MAPK4; 10 µM 0 | MAPKAPK2; 10 µM 0 | MKNK1; 10 µM 0 | NTRK2; 10 µM 0 | NTRK3; 10 µM 0 | PAK4; 10 µM 0 | PBK; 10 µM 0 | PDGFRB; 10 µM 0 | PDK1; 10 µM 0 | PDPK1; 10 µM 0 | PIK4CA; 10 µM 0 | PIK4CB; 10 µM 0 | PLK1; 10 µM 0 | PRKAA1; 10 µM 0 | PRKCA; 10 µM 0 | PTK2; 10 µM 0 | PTK2B; 10 µM 0 | RAF1; 10 µM 0 | [1]; 10 µM 0

CCCCCCCCc1ccc(CCC(N)(CO)CO)cc1 [Fingolimod (hydrochloride)]
inactive: MAPK1; 2.5 µM 0 | MAPK4; 2.5 µM 0 | MAPKAPK2; 2.5 µM 0 | MKNK1; 2.5 µM 0 | NTRK3; 2.5 µM 0 | PAK4; 2.5 µM 0 | PBK; 2.5 µM 0 | PDGFRB; 2.5 µM 0 | PDK1; 2.5 µM 0 | PDPK1; 2.5 µM 0 | PIK4CA; 2.5 µM 0 | PIK4CB; 2.5 µM 0 | PLK1; 2.5 µM 0 | PRKAA1; 2.5 µM 0 | PRKCA; 2.5 µM 0 | PTK2; 2.5 µM 0 | PTK2B; 2.5 µM 0 | RAF1; 2.5 µM 0 | [1]; 2.5 µM 0

N#CCC1(n2cc(-c3ncnc4[nH]ccc34)cn2)CN(C2CCN(C(=O)c3ccnc(C(F)(F)F)c3F)CC2)C1 [Itacitinib]
inactive: MAPK1; 10 µM 0 | MAPK4; 10 µM 0 | MAPKAPK2; 10 µM 0 | MKNK1; 10 µM 0 | NTRK2; 10 µM 0 | NTRK3; 10 µM 0 | PAK4; 10 µM 0 | PBK; 10 µM 0 | PDGFRB; 10 µM 0 | PDK1; 10 µM 0 | PDPK1; 10 µM 0 | PIK4CA; 10 µM 0 | PIK4CB; 10 µM 0 | PLK1; 10 µM 0 | PRKAA1; 10 µM 0 | PRKCA; 10 µM 0 | PTK2; 10 µM 0 | PTK2B; 10 µM 0 | RAF1; 10 µM 0 | [1]; 10 µM 0

Two neighbouring entries from above:
CNC(=O)c1ccc(Nc2ncc(C(F)(F)F)c(NCc3nccnc3N(C)S(C)(=O)=O)n2)cc1 [Defactinib (hydrochloride)]
inactive: MAPK1; 10 µM 0 | MAPK4; 10 µM 0 | MAPKAPK2; 10 µM 0 | MKNK1; 10 µM 0 | NTRK2; 10 µM 0 | NTRK3; 10 µM 0 | PAK4; 10 µM 0 | PBK; 10 µM 0 | PDGFRB; 10 µM 0 | PDK1; 10 µM 0 | PDPK1; 10 µM 0 | PIK4CA; 10 µM 0 | PIK4CB; 10 µM 0 | PLK1; 10 µM 0 | PRKAA1; 10 µM 0 | PRKCA; 10 µM 0 | PTK2; 10 µM 0 | PTK2B; 10 µM 0 | RAF1; 10 µM 0 | [1]; 10 µM 0

COc1cc2c(-c3cnn4cc(N5CCC(N6CCN(C)CC6)CC5)cnc34)ccnc2cc1F [ALK2-IN-4 (succinate)]
inactive: MAPK1; 10 µM 0 | MAPK4; 10 µM 0 | MAPKAPK2; 10 µM 0 | MKNK1; 10 µM 0 | NTRK2; 10 µM 0 | NTRK3; 10 µM 0 | PAK4; 10 µM 0 | PBK; 10 µM 0 | PDGFRB; 10 µM 0 | PDK1; 10 µM 0 | PDPK1; 10 µM 0 | PIK4CA; 10 µM 0 | PIK4CB; 10 µM 0 | PLK1; 10 µM 0 | PRKAA1; 10 µM 0 | PRKCA; 10 µM 0 | PTK2; 10 µM 0 | PTK2B; 10 µM 0 | RAF1; 10 µM 0 | [1]; 10 µM 0

Next entries:

C[C@H](CCC(=O)NCCS(=O)(=O)O)[C@H]1CC[C@H]2[C@@H]3[C@@H](O)C[C@@H]4C[C@H](O)CC[C@]4(C)[C@H]3CC[C@]12C [Tauroursodeoxycholate (sodium)]
inactive: MAPK1; 10 µM 0 | MAPK4; 10 µM 0 | MAPKAPK2; 10 µM 0 | MKNK1; 10 µM 0 | NTRK2; 10 µM 0 | NTRK3; 10 µM 0 | PAK4; 10 µM 0 | PBK; 10 µM 0 | PDGFRB; 10 µM 0 | PDK1; 10 µM 0 | PDPK1; 10 µM 0 | PIK4CA; 10 µM 0 | PIK4CB; 10 µM 0 | PLK1; 10 µM 0 | PRKAA1; 10 µM 0 | PRKCA; 10 µM 0 | PTK2; 10 µM 0 | PTK2B; 10 µM 0 | RAF1; 10 µM 0 | [1]; 10 µM 0

Cc1cccc(-c2[nH]c(CNc3ccccc3F)nc2-c2ccc3ncnn3c2)n1 [Vactosertib]
inactive: MAPK1; 2.5 µM 0 | MAPK4; 2.5 µM 0 | MAPKAPK2; 2.5 µM 0 | MKNK1; 2.5 µM 0 | NTRK2; 2.5 µM 0 | PAK4; 2.5 µM 0 | PBK; 2.5 µM 0 | PDGFRB; 2.5 µM 0 | PDK1; 2.5 µM 0 | PDPK1; 2.5 µM 0 | PIK4CA; 2.5 µM 0 | PIK4CB; 2.5 µM 0 | PLK1; 2.5 µM 0 | PRKAA1; 2.5 µM 0 | PRKCA; 2.5 µM 0 | PTK2; 2.5 µM 0 | PTK2B; 2.5 µM 0 | RAF1; 2.5 µM 0 | [1]; 2.5 µM 0

C/C=C1\C(=O)C[C@H]2[C@@H]3CCC4=CC(=O)CC[C@]4(C)[C@H]3CC[C@]12C [(Z)-Guggulsterone]
inactive: MAPK1; 10 µM 0 | MAPK4; 10 µM 0 | MAPKAPK2; 10 µM 0 | MKNK1; 10 µM 0 | NTRK2; 10 µM 0 | NTRK3; 10 µM 0 | PAK4; 10 µM 0 | PBK; 10 µM 0 | PDGFRB; 10 µM 0 | PDK1; 10 µM 0 | PDPK1; 10 µM 0 | PIK4CA; 10 µM 0 | PIK4CB; 10 µM 0 | PRKAA1; 10 µM 0 | PRKCA; 10 µM 0 | PTK2; 10 µM 0 | PTK2B; 10 µM 0 | RAF1; 10 µM 0 | [1]; 10 µM 0

CC(=O)Nc1cccc(-n2c(=O)n(C3CC3)c(=O)c3c(Nc4ccc(I)cc4F)n(C)c(=O)c(C)c32)c1 [Trametinib]
inactive: MAPK1; 10 µM 0 | MAPK4; 10 µM 0 | MAPKAPK2; 10 µM 0 | MKNK1; 10 µM 0 | NTRK2; 10 µM 0 | NTRK3; 10 µM 0 | PAK4; 10 µM 0 | PBK; 10 µM 0 | PDGFRB; 10 µM 0 | PDK1; 10 µM 0 | PDPK1; 10 µM 0 | PIK4CA; 10 µM 0 | PIK4CB; 10 µM 0 | PLK1; 10 µM 0 | PRKAA1; 10 µM 0 | PRKCA; 10 µM 0 | PTK2; 10 µM 0 | PTK2B; 10 µM 0 | RAF1; 10 µM 0 | [1]; 10 µM 0

CC(C)NC[C@@H](C(=O)N1CCN(c2ncnc3c2[C@H](C)C[C@H]3O)CC1)c1ccc(Cl)cc1 [Ipatasertib (dihydrochloride)]
inactive: MAPK1; 10 µM 0 | MAPK4; 10 µM 0 | MAPKAPK2; 10 µM 0 | MKNK1; 10 µM 0 | NTRK3; 10 µM 0 | PAK4; 10 µM 0 | PBK; 10 µM 0 | PDGFRB; 10 µM 0 | PDK1; 10 µM 0 | PDPK1; 10 µM 0 | PIK4CA; 10 µM 0 | PIK4CB; 10 µM 0 | PLK1; 10 µM 0 | PRKAA1; 10 µM 0 | PRKCA; 10 µM 0 | PTK2; 10 µM 0 | PTK2B; 10 µM 0 | RAF1; 10 µM 0 | [1]; 10 µM 0

Nc1ncnc2c1c(-c1ccc(Oc3ccccc3)cc1)nn2[C@@H]1CCCNC1 [IBT6A (hydrochloride)]
inactive: MAPK1; 2.5 µM 0 | MAPK4; 2.5 µM 0 | MAPKAPK2; 2.5 µM 0 | MKNK1; 2.5 µM 0 | NTRK2; 2.5 µM 0 | NTRK3; 2.5 µM 0 | PAK4; 2.5 µM 0 | PBK; 2.5 µM 0 | PDGFRB; 2.5 µM 0 | PDK1; 2.5 µM 0 | PDPK1; 2.5 µM 0 | PIK4CA; 2.5 µM 0 | PIK4CB; 2.5 µM 0 | PLK1; 2.5 µM 0 | PRKAA1; 2.5 µM 0 | PRKCA; 2.5 µM 0 | PTK2; 2.5 µM 0 | PTK2B; 2.5 µM 0 | RAF1; 2.5 µM 0 | [1]; 2.5 µM 0

Cn1ncc(Cl)c1-c1cc(C(=O)N[C@H](CN)Cc2cccc(F)c2)sc1Cl [Afuresertib]
inactive: MAPK1; 10 µM 0 | MAPK4; 10 µM 0 | MAPKAPK2; 10 µM 0 | MKNK1; 10 µM 0 | NTRK3; 10 µM 0 | PAK4; 10 µM 0 | PBK; 10 µM 0 | PDGFRB; 10 µM 0 | PDK1; 10 µM 0 | PDPK1; 10 µM 0 | PIK4CA; 10 µM 0 | PIK4CB; 10 µM 0 | PLK1; 10 µM 0 | PRKAA1; 10 µM 0 | PRKCA; 10 µM 0 | PTK2; 10 µM 0 | PTK2B; 10 µM 0 | RAF1; 10 µM 0 | [1]; 10 µM 0

Source: the supplement of paper PMC12823440, “Inhibitors supercharge kinase turnover through native proteolytic circuits” (Nature, 2025)
